Measurements reported in the supplement of paper PMC8728848.
Some of the results follow.

Tests used:
Test in all cases: glycan array binding signal (z-score within array); higher = stronger binding
Conditions in all cases: glycan notation: IUPAC condensed, linker removed
[1] = biological target: GlcNAc(b1-3)Gal(b1-4)GlcNAc(b1-3)Gal(b1-4)GlcNAc(b1-3)GalNAc
Summary of the method: (§1)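 Negative Z-scores can be read as non-binding. The Z-score is calculated within each array and then averaged across arrays of one protein sequence at different concentrations or buffers and across linkers. Arrays, 3228 in all, were curated from the Consortium for Functional Glycomics database and kept only where the protein sequence was available.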

[2] = biological target: GlcNAc(b1-3)Gal(b1-4)GlcNAc(b1-3)GalNAc
Summary of the method: as §1

[3] = biological target: GlcNAc(b1-3)Gal(b1-4)GlcNAc(b1-3)[GlcNAc(b1-3)Gal(b1-4)GlcNAc(b1-3)]GalNAc
Summary of the method: as §1

[4] = biological target: GlcNAc(b1-3)Gal(b1-4)GlcNAc(b1-6)[Gal(b1-3)]GalNAc
Summary of the method: as §1

[5] = biological target: GlcNAc(b1-3)Gal(b1-4)GlcNAc(b1-6)[GlcNAc(b1-3)Gal(b1-3)]GalNAc
Summary of the method: as §1

[6] = biological target: GlcNAc(b1-3)Gal(b1-4)GlcNAc(b1-6)[GlcNAc(b1-3)]Gal(b1-4)GlcNAc
Summary of the method: as §1

[7] = biological target: GlcNAc(b1-3)GalNAc
Summary of the method: as §1

[8] = biological target: GlcNAc(b1-3)Man
Summary of the method: as §1

[9] = biological target: GlcNAc(b1-3)[GlcNAc(b1-4)][GlcNAc(b1-6)]GlcNAc
Summary of the method: as §1

[10] = biological target: GlcNAc(b1-3)[GlcNAc(b1-6)]Gal(b1-4)GlcNAc
Summary of the method: as §1

[11] = biological target: GlcNAc(b1-3)[GlcNAc(b1-6)]GalNAc
Summary of the method: as §1

[12] = biological target: GlcNAc(b1-4)Gal(b1-4)GlcNAc
Summary of the method: as §1

[13] = biological target: GlcNAc(b1-4)GlcNAc
Summary of the method: as §1

[14] = biological target: GlcNAc(b1-4)GlcNAc(b1-4)GlcNAc
Summary of the method: as §1

[15] = biological target: GlcNAc(b1-4)GlcNAc(b1-4)GlcNAc(b1-4)GlcNAc(b1-4)GlcNAc
Summary of the method: as §1

[16] = biological target: GlcNAc(b1-4)GlcNAc(b1-4)GlcNAc(b1-4)GlcNAc(b1-4)GlcNAc(b1-4)GlcNAc
Summary of the method: as §1

[17] = biological target: GlcNAc(b1-4)[GlcNAc(b1-6)]GalNAc
Summary of the method: as §1

[18] = biological target: GlcNAc(b1-6)Gal(b1-4)GlcNAc
Summary of the method: as §1

[19] = biological target: GlcNAc(b1-6)GalNAc
Summary of the method: as §1

[20] = biological target: GlcNAc6S(b1-3)Gal(b1-4)GlcNAc
Summary of the method: as §1

[21] = biological target: Kdn(a2-3)Gal(b1-3)GalNAc
Summary of the method: as §1

[22] = biological target: Kdn(a2-3)Gal(b1-3)GlcNAc
Summary of the method: as §1

[23] = biological target: Kdn(a2-3)Gal(b1-4)Glc
Summary of the method: as §1

[24] = biological target: Kdn(a2-3)Gal(b1-4)GlcNAc
Summary of the method: as §1

[25] = biological target: Kdn(a2-3)Gal(b1-4)[Fuc(a1-3)]GlcNAc
Summary of the method: as §1

[26] = biological target: Kdn(a2-6)Gal(b1-4)GlcNAc
Summary of the method: as §1

[27] = biological target: Man(a1-2)Man(a1-2)Man(a1-3)Man
Summary of the method: as §1

[28] = biological target: Man(a1-2)Man(a1-2)Man(a1-6)[Man(a1-3)]Man
Summary of the method: as §1

[29] = biological target: Man(a1-2)Man(a1-3)Man
Summary of the method: as §1

[30] = biological target: Man(a1-2)Man(a1-3)[Man(a1-2)Man(a1-6)]Man
Summary of the method: as §1

[31] = biological target: Man(a1-2)Man(a1-3)[Man(a1-2)Man(a1-6)]Man(a1-6)[Man(a1-2)Man(a1-2)Man(a1-3)]Man
Summary of the method: as §1

[32] = biological target: Man(a1-2)Man(a1-3)[Man(a1-2)Man(a1-6)]Man(a1-6)[Man(a1-2)Man(a1-2)Man(a1-3)]Man(b1-4)GlcNAc(b1-4)GlcNAc
Summary of the method: as §1

[33] = biological target: Man(a1-2)Man(a1-3)[Man(a1-6)]Man(a1-6)[Man(a1-2)Man(a1-3)]Man(b1-4)GlcNAc(b1-4)GlcNAc
Summary of the method: as §1

[34] = biological target: Man(a1-2)Man(a1-6)[Man(a1-3)]Man(a1-6)[Man(a1-2)Man(a1-2)Man(a1-3)]Man
Summary of the method: as §1

[35] = biological target: Man(a1-2)Man(a1-6)[Man(a1-3)]Man(a1-6)[Man(a1-2)Man(a1-2)Man(a1-3)]Man(b1-4)GlcNAc(b1-4)GlcNAc
Summary of the method: as §1

[36] = biological target: Man(a1-3)[Man(a1-6)]Man
Summary of the method: as §1

[37] = biological target: Man(a1-3)[Man(a1-6)]Man(a1-6)[Man(a1-2)Man(a1-3)]Man(b1-4)GlcNAc(b1-4)GlcNAc
Summary of the method: as §1

[38] = biological target: Man(a1-3)[Man(a1-6)]Man(a1-6)[Man(a1-3)]Man
Summary of the method: as §1

[39] = biological target: Man(a1-3)[Man(a1-6)]Man(a1-6)[Man(a1-3)]Man(b1-4)GlcNAc(b1-4)GlcNAc
Summary of the method: as §1

[40] = biological target: Man(a1-3)[Man(a1-6)]Man(b1-4)GlcNAc(b1-4)GlcNAc
Summary of the method: as §1

[41] = biological target: Man(a1-3)[Man(a1-6)]Man(b1-4)GlcNAc(b1-4)[Fuc(a1-6)]GlcNAc
Summary of the method: as §1

[42] = biological target: Man(a1-6)Man
Summary of the method: as §1

[43] = biological target: Man(b1-4)GlcNAc
Summary of the method: as §1

[44] = biological target: MurNAc(b1-4)GlcNAc
Summary of the method: as §1

[45] = biological target: Neu5Ac(a2-3)Gal
Summary of the method: as §1

B1: OS9 (Arabidopsis thaliana) (protein)
chain: MRGSHHHHHHGMASMTGGQQMGRDLYDDDDKSRLQIFPAHLVGTFSRNNREPKYKIEFLPEDSPFHPGDNLESMVMLDKHGNRFLCYLPKEEKATSGWTSSQQNISTVMMETQQLVKLKTPDELLQPLSEKCLFRQEGWWSYEFCHQKYVRQLHVEDENKIVQEFFLGTFDPEATAAFNQTVSDASTDASQRYHSHVYTNGTTCDLTGSPREVEVRFVCAETRAMVTSITELSTCKYALTVQCPTLCKHPLFQLEKPVSHTIHCNAIPVEEDATRNKEEQAVDESPKMIADS
[1]
  glycan array binding signal (z-score): -0.933
[2]
  glycan array binding signal (z-score): 0.055
[3]
  glycan array binding signal (z-score): -0.582
[4]
  glycan array binding signal (z-score): 0.094
[5]
  glycan array binding signal (z-score): 1.05
[6]
  glycan array binding signal (z-score): -0.589
[7]
  glycan array binding signal (z-score): 0.441
[8]
  glycan array binding signal (z-score): 0.127
[9]
  glycan array binding signal (z-score): -0.368
[10]
  glycan array binding signal (z-score): 0.204
[11]
  glycan array binding signal (z-score): -0.607
[12]
  glycan array binding signal (z-score): -0.506
[13]
  glycan array binding signal (z-score): 0.952
[14]
  glycan array binding signal (z-score): -0.202
[15]
  glycan array binding signal (z-score): 0.349
[16]
  glycan array binding signal (z-score): -0.45
[17]
  glycan array binding signal (z-score): -0.3
[18]
  glycan array binding signal (z-score): 0.424
[19]
  glycan array binding signal (z-score): -0.857
[20]
  glycan array binding signal (z-score): -0.68
[21]
  glycan array binding signal (z-score): 1.41
[22]
  glycan array binding signal (z-score): -1.07
[23]
  glycan array binding signal (z-score): 0.473
[24]
  glycan array binding signal (z-score): 0.482
[25]
  glycan array binding signal (z-score): -0.824
[26]
  glycan array binding signal (z-score): -0.701
[27]
  glycan array binding signal (z-score): -0.763
[28]
  glycan array binding signal (z-score): 0.074
[29]
  glycan array binding signal (z-score): -1.25
[30]
  glycan array binding signal (z-score): 0.462
[31]
  glycan array binding signal (z-score): -0.133
[32]
  glycan array binding signal (z-score): -0.644
[33]
  glycan array binding signal (z-score): -0.139
[34]
  glycan array binding signal (z-score): -0.146
[35]
  glycan array binding signal (z-score): -0.323
[36]
  glycan array binding signal (z-score): -0.078
[37]
  glycan array binding signal (z-score): -1.13
[38]
  glycan array binding signal (z-score): -0.163
[39]
  glycan array binding signal (z-score): 1.43
[40]
  glycan array binding signal (z-score): -0.77
[41]
  glycan array binding signal (z-score): 0.384
[42]
  glycan array binding signal (z-score): 1.8
[43]
  glycan array binding signal (z-score): -0.806
[44]
  glycan array binding signal (z-score): -0.22
[45]
  glycan array binding signal (z-score): -0.482
